Laboratory results reported in PubChem BioAssay AID1487 (National Center for Advancing Translational Sciences (NCATS), 2009).
The other results are listed elsewhere or left out. The main result of the screen is listed elsewhere. These columns were measured beside it and carry no call. The list favours compounds with an active or inconclusive main result. Words in brackets tell the shape of the fitted curve; partial curves, single points and poor fits give uncertain potencies.

Experiment: qHTS Assay for Modulators of Lamin A Splicing
Details: HeLa LMNA splicing GFP/RFP minigene ratio, 48 h
Outline: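 S3 HeLa cells stably expressing lamin A-EGFP splicing minigene plus DsRed2, 600 cells/well, 48 h compound exposure at 37C. Laser-scanning cytometry; analysed as GFP (500-530 nm)/RFP (575-640 nm) total intensity ratio; 0.5% DMSO vehicle.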

[1] = measured here: RFP viability control channel
[2] = measured here: GFP splicing reporter channel

| SMILES | AC50 [1] | AC50 [2] |
| --- | --- | --- |
| O=C(OCC(=O)N1CCOCC1)c1ccc(N2CCOCC2)c([N+](=O)[O-])c1 | 0.0398 µM [falling, full curve, poor fit] | – |
| CCn1c(CNc2cccc(C(F)(F)F)c2)n[nH]c1=S | – | 35.5 µM [falling, single point] |
| CCNC(=S)NNC(=O)c1cc(-c2cccnc2)nc2ccccc12 | – | 8.91 µM [falling, partial curve, poor fit] |
| O=S1(=O)CC2N=C(N(Cc3ccc(F)cc3Cl)c3ccccc3F)SC2C1 (stereo unspecified) | 3.16 µM [rising, partial curve] | – |
| COc1ccc2cc(C(C)c3nc4ccccc4c(=O)n3N)ccc2c1 (stereo unspecified) | 28.2 µM [rising, single point] | 11.2 µM [rising, single point] |
| O=C(Cc1c[nH]c2ccccc12)OCCOC(=O)Cc1c[nH]c2ccccc12 | 0.708 µM [falling, partial curve, poor fit] | 0.00562 µM [falling, full curve, poor fit] |
| Cc1ccnc(NC(=O)c2sc3ccccc3c2Cl)c1 | – | 0.0891 µM [rising, partial curve, poor fit] |
| CCCCC1=CC2=C(c3ccco3)C(=O)C(C)(OC(=O)c3ccc(OC)cc3)C(=O)C2=CN1CCCCO (stereo unspecified) | 0.0562 µM [falling, partial curve, poor fit] | – |
| CCOc1ccc(CN(C)CC(=O)Nc2cc(C)c(C)cc2[N+](=O)[O-])cc1 | – | 8.91 µM [falling, partial curve] |
| O=C(CN1CCN(c2ccccc2F)CC1)Nc1nnc(C(F)(F)F)s1 | 0.0224 µM [rising, full curve, poor fit] | – |
| O=[N+]([O-])c1cc(Br)c(O)c(/C=N/Nc2nc3ccccc3s2)c1 | – | 0.0224 µM [falling, full curve, poor fit] |
| CCCn1c(=S)[nH]c2cc(C(=O)N3CCc4ccccc43)ccc2c1=O | 4.47 µM [rising, full curve] | 1.12 µM [rising, partial curve] |
| COC(=O)c1c(CCl)noc1C(=O)NCC1CCCO1 (stereo unspecified) | 3.55 µM [falling, partial curve, poor fit] | – |
| Cc1ccc(C)c(CN2CCC(CNC(=O)c3cc4ccc5cccnc5c4[nH]3)CC2)c1 | – | 8.91 µM [falling, partial curve] |
| O=C(Nc1nccs1)c1ccc(Cl)c(S(=O)(=O)N2CCCCC2)c1 | 14.1 µM [rising, partial curve] | 0.794 µM [rising, full curve, poor fit] |
| COc1ccc(NCc2n[nH]nc2-c2ccccc2)cc1Cl | – | 35.5 µM [rising, single point] |
| COc1ccc(-c2noc(-c3ccccc3-c3ccccc3)n2)cc1 | 31.6 µM [falling, partial curve, poor fit] | 31.6 µM [falling, partial curve] |

| SMILES | AC50 [1] | AC50 [2] |
| --- | --- | --- |
| COc1nc(-c2ccc(C)cc2)ccc1-c1noc(-c2ccco2)n1 | 8.91 µM [rising, partial curve] | 11.2 µM [rising, partial curve, poor fit] |
| C[C@@H]1C=C[C@](Cc2ccccc2)(C(=O)NCCc2c[nH]c3ccccc23)N1C(=O)c1ccccc1 | 31.6 µM [rising, single point] | – |
| COc1ccc(NS(=O)(=O)c2cc(NC(=O)Cc3cccs3)ccc2C)cc1 | 35.5 µM [rising, single point] | – |
| COc1cccc2sc(N(CCN(C)C)C(=O)/C=C/c3cccs3)nc12 | – | 1.78 µM [rising, partial curve, poor fit] |
| c1ccc(-c2ccccc2OCCCCN2CCCCCC2)cc1 | 15.8 µM [rising, partial curve, poor fit] | – |
| O=c1c(O)c(-c2ccccc2)oc2cc(O)ccc12 | – | 22.4 µM [falling, partial curve, poor fit] |
| Cc1nc(SCc2cccc(C(=O)O)c2)nc2c1CCCC2 | 0.708 µM [falling, full curve, poor fit] | – |
| Cn1c(CSCc2ccccc2Cl)nnc1SCC(=O)Nc1nccs1 | 11.2 µM [rising, partial curve] | – |
| CCOc1ccc(S(=O)(=O)NN2Cc3ccccc3C2=N)cc1 | 1.12 µM [falling, full curve, poor fit] | 0.178 µM [falling, full curve, poor fit] |
| Cc1cc(-n2[nH]c(C)c(C)c2=O)nc(-c2ccccc2O)n1 | 31.6 µM [rising, single point] | – |
| C=CCn1c(Oc2ccc(C(=O)OC)cc2)nc2c1c(=O)n(C)c(=O)n2C | 35.5 µM [rising, single point] | 35.5 µM [rising, single point] |
| NC[C@@H]1O[C@H](O[C@@H]2[C@H](O[C@@H]3O[C@H](CO)[C@@H](O)[C@@H]3O)[C@@H](O)[C@@H](N)C[C@H]2N)[C@@H](N)[C@H](O)[C@@H]1O | 2.82 µM [falling, partial curve, poor fit] | 0.0891 µM [falling, full curve, poor fit] |
| Cc1cccc(NS(=O)(=O)c2ccc(Oc3ccccc3)cc2)n1 | 12.6 µM [rising, partial curve, poor fit] | – |
| COc1ccc2cc(-c3cc(C(=O)OCC(=O)NC4CCS(=O)(=O)C4)c4ccccc4n3)ccc2c1 (stereo unspecified) | 31.6 µM [rising, partial curve, poor fit] | 0.178 µM [rising, full curve] |
| c1ccc(Cn2ccc(-c3cnc(-c4ccccc4)s3)n2)cc1 | 11.2 µM [rising, single point] | – |
| Cc1nc2cc(NC(=O)COc3ccccc3C#N)ccc2n1-c1ccccc1 | 15.8 µM [rising, single point] | 12.6 µM [rising, single point] |
| CCOc1ccccc1CNC(=O)c1ccc2c(c1)sc1nc(-c3cccc(OC)c3)cn12 | 3.16 µM [falling, partial curve, poor fit] | 3.55 µM [falling, single point] |

Reprinted from the entries so far, two compounds:

| SMILES | AC50 [1] | AC50 [2] |
| --- | --- | --- |
| COc1nc(-c2ccc(C)cc2)ccc1-c1noc(-c2ccco2)n1 | 8.91 µM [rising, partial curve] | 11.2 µM [rising, partial curve, poor fit] |
| C[C@@H]1C=C[C@](Cc2ccccc2)(C(=O)NCCc2c[nH]c3ccccc23)N1C(=O)c1ccccc1 | 31.6 µM [rising, single point] | – |
